In test [1] the test system is Leishmania amazonensis promastigotes. The test is described as follows: Leishmanicidal activity against promastigotes (alamarBlue assay). The class given is cell-based. As to conditions: 72 h, mean ± SD, read-out: inhibitory concentration 50 (IC50), promastigote stage, L. amazonensis. The procedure: (§1) Initial screening of the 160 compounds against Leishmania promastigotes was performed at 10 μM following MMV foundation instructions provided with the box. The compound activity was assessed using the modified alamarBlue® assay (Invitrogen/Life Technologies, Madrid, Spain) with 10^6 promastigotes per well. DMSO concentration never surpassed 0.1% (v/v) to avoid impacting parasite proliferation or morphology. Subsequently, an EnSpire multimode plate reader (PerkinElmer, MA, USA) was used to measure fluorescence after 72 h. […] Serial dilutions were made in 96-well plates and incubated with parasites for 72 h after adding alamarBlue®. IC50 values were calculated using SigmaPlot 14.0 (Systat Software Inc., Chicago, IL, USA) based on fluorescence measurements. Each concentration was tested in duplicate across three independent experiments.
(The colour change of resazurin is a common sign of viable cells or microbes.)

Test [2] relates to Leishmania donovani promastigotes. The test is described as above. The class given is cell-based. Conditions: 72 h, mean ± SD, w/a: without activity. The procedure:
as §1

SMILES strings stand for the structures.

As to `CO[C@@H]1[C@H](N(C)C(=O)c2ccccc2)C[C@H]2O[C@]1(C)n1c3ccccc3c3c4c(c5c6ccccc6n2c5c31)C(=O)NC4` [Midostaurin], the IC50 in test [1] came out at 0.67 ± 0.05 µM. Besides, the “inhibitory concentration 50 (IC50), promastigote stage, L. donovani” value in test [2] is listed as “w/a at 100”.

For the origin of these results see article PMC10974317, “Anti-COVID Drugs (MMV COVID Box) as Leishmanicidal Agents: Unveiling New Therapeutic Horizons” (Pharmaceuticals, 2024).
